Some of these results come from one statement about several compounds together. The name of at least one read-out is uncertain.
Assay: Bioavailability of acamprosate following oral or colonic administration of acamprosate prodrugs to rats
Settings: rat, 70 mg-equivalents acamprosate per kg, F% vs iv acamprosate, dose normalized

SMILES | acamprosate oral bioavailability relative to the acamprosate oral bioavailability of an equivalent dose of acamprosate itself in an equivalent dosage form (oral (po) administration) | acamprosate colonic bioavailability relative to the acamprosate colonic bioavailability of an equivalent dose of acamprosate itself (colonic (ic) administration)
CC(=O)NCCCS(=O)(=O)OCC1(C)CCOC1=O (racemic) [Compound 2, rac-(3-Methyl-2-oxo-3-3,4,5-trihydrofuryl)methyl [3-(acetylamino)propyl]sulfonate] | at least 3 times | 
CC(=O)NCCCS(=O)(=O)OCC1(C)COC(=O)C1 (racemic) [Compound 4, rac-(3-Methyl-5-oxo-3-2,3,4-trihydrofuryl)methyl [3-(acetylamino)propyl]sulfonate] |  | at least 5 times
